Measurements: patent publication US20100015130A1
No constants are given. Whether binding was seen depends on the method and setting. Binding can be weak; no strength is given. For part of these data: Binding seen in cells or lysates may run through a third protein. For part of these data: Sequences can lack the tags named with a protein.

Experiments:
[1] = molecular target: GSK3β as used in the surface plasmon resonance (SPR) binding assays (Homo sapiens (Human)); experiment: SPR scan, FIG. 16A
[2] = molecular target: GSK3β as used in the surface plasmon resonance (SPR) binding assays (Homo sapiens (Human)); experiment: SPR
[3] = molecular target: His-GSK3β (purified recombinant His-tagged GSK3β, Sigma-Aldrich) (Homo sapiens (Human)); experiment: in vitro binding assay (GST pull-down)
[4] = molecular target: His-GSK3β (purified recombinant His-tagged GSK3β, Sigma-Aldrich) (Homo sapiens (Human)); experiment: GST pull-down with purified His-GSK3β, Western blot
[5] = molecular target: His-GSK3β (purified recombinant His-tagged GSK3β, Sigma-Aldrich) (Homo sapiens (Human)); experiment: GST pull-down, FIG. 4f
[6] = molecular target: GSK3β as used in the surface plasmon resonance (SPR) binding assays (Homo sapiens (Human)); experiment: SPR of overlapping 15-mers
[7] = molecular target: GSK3β as used in the surface plasmon resonance (SPR) binding assays (Homo sapiens (Human)); experiment: SPR, FIG. 18

Row | binding [1] | binding [2] | binding [3] | binding [4] | binding [5] | Binder | also measured
1 | binds | binds |  |  |  | GYMRSTAGSGIGFLSPAVGMPHPSSAGLTGQQSQHSQS [Mouse DISC1 peptide 1 (40-78aa)] | 
2 | binds | binds |  |  |  | PADIASLPGFQDTFTSSFSFIQLSLGAAGERGEAEGCLPSREAE [Mouse DISC1 peptide 2 (195-238aa)] | 
3 |  |  | binds | binds | binds | GST-tagged mouse DISC1 fragment 1-220aa (protein, UniProt Q811T9 1-220, looked up, not shown: a dimerising Fc or GST) MQGGGPRGAPIHSPSHGADSGHGLPPAVAPQRRRLTRRPGYMRSTAGSGIGFLSPAVGMPHPSSAGLTGQQSQHSQSKAGQCGLDPGSHCQASLVGKPFLKSSLVPAVASEGHLHPAQRSMRKRPVHFAVHSKNDSRQSERLTGSFKPGDSGFWQELLSSDSFKSLAPSLDAPWNKGSRGLKTVKPLASPALNGPADIASLPGFQDTFTSSFSFIQLSLG | 
4 |  |  | binds | binds | binds | GST-tagged mouse DISC1 fragment 356-595aa (protein, UniProt Q811T9 356-595, looked up, not shown: a dimerising Fc or GST) LKLQKCQEKVVEDGDYDTAETLRQRLEELEQEKGRLSWALPSQQPALRSFLGYLAAQIQVALHGATQRAGSDDPEAPLEGQLRTTAQDSLPASITRRDWLIREKQRLQKEIEALQARMSALEAKEKRLSQELEEQEVLLRWPGCDLMALVAQMSPGQLQEVSKALGETLTSANQAPFQVEPPETLRSLRERTKSLNLAVRELTAQVCSGEKLCSSLRRRLSDLDTRLPALLEAKMLALSG | 
5 |  |  |  |  |  | SFSFIQLSLGAAGER [Murine DISC1 peptide 3 (15-mer, mDISC1 amino acids 211 to 225)] | binding [6]: binds; binding [7]: binds
